Measurements reported in PubChem BioAssay AID504895 (National Center for Advancing Translational Sciences (NCATS), 2011).
This list was built around the results that the source calls inconclusive (neither active nor inactive); the mix of calls is not that of the screen. A potency beside an inconclusive call is a rough fit, not a confirmed value. Active and inactive are the calls of the source. Calls come from the whole dose curve; as a rule, active = well fitted curve in the direction sought with a large enough effect; inconclusive = small, poorly fitted or top-dose-only effect, or another doubt; inactive = no such curve, though single readings can be large or run the other way.

Sequences of proteins named here, by UniProt entry; tags and fusion partners are left off. A change or cut given only in a name is not applied to a line headed by its entry.
UniProt O00167: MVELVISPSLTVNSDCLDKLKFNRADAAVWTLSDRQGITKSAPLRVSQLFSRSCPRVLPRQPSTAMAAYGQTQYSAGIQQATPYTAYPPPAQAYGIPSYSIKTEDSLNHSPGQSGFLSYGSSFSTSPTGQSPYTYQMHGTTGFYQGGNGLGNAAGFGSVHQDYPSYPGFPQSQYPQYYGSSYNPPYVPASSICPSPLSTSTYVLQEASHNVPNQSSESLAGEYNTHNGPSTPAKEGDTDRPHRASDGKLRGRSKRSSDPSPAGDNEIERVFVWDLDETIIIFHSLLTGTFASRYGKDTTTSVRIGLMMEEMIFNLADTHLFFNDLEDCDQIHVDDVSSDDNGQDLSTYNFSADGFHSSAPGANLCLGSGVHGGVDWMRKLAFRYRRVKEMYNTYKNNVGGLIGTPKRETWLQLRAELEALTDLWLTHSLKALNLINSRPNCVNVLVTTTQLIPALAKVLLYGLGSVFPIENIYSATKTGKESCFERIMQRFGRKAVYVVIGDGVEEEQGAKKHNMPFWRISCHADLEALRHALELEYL

Target: Protein phosphatase EYA2 (Homo sapiens) (UniProt O00167)
Assay: Inhibitors of Eya2ED: Hit Confirmation in Primary Screen
Conditions: Recombinant Eya2ED, OMFP fluorescence phosphatase assay; series mostly up to 76.9 µM
From the text: The Eya proteins (Eya1-4) were originally identified as essential co-activators of the Six1 transcription factor. […] Knockdown of Six1 decreases cancer cell proliferation and metastases in several different cancer models. […] A fluorescence-based HTS assay has been perfomed against the Molecular Libraries Small Molecule Repository (MLSMR) and has the AID 488837 in this database. After completion of the primary screen, hits were re-ordered and tested again in the primary screen in a 12 point titration. NIH Chemical Genomics Center [NCGC] NIH Molecular Libraries Probe Centers Network [MLPCN] MLPCN Grant: DA030559-01 Assay Submitter (PI): Rui Zhao, University of Colorado, Denver
The Eya2 enzyme was kindly provided by the laboratory of Dr. Rui Zhao. The 3-O-methyl-fluorescein phosphate (OMFP) substrate and all buffer reagents were purchased from Sigma Aldrich. qHTS Assay Setup: 1. Buffer- 50 mM HEPES pH 7.5, 50 mM NaCl, 5 uM MgCl2, 0.05% BSA, 1 mM DTT. 2. OMFP Stock- 10 mM solution prepared in 100% DMSO and stored in single use aliquots at -20C. Assay Procedure- 1. Dispense 1.5 ul per well of Eya2 at 0.2 uM in black medium binding 1536 well Greiner plate 2. Transfer 23 nl of compound and control compound (EGTA) to plate 3. Incubate at ambient for 10 minutes 4. Dispense 1.5 ul per well of OMFP at 50 uM 5. Incubate at ambient for 10 minutes 6. Read on ViewLux using Excitation = 485 nm, Emission = 525 nm

Row | SMILES | Potency
1 | CCOC(=O)c1ccc(N=C(CC)c2c(O)n(C)c(=O)n(C)c2=O)cc1 | inactive
2 | Cc1cc2c(C(C)C)c(O)c(O)c(C=O)c2c(O)c1-c1c(C)cc2c(C(C)C)c(O)c(O)c(C=O)c2c1O | inconclusive: 92.3 µM [inhibitor, single point]
3 | CC(C)c1ccc(-n2c(O)c(C=NCCN3CCNCC3)c(=O)[nH]c2=S)cc1 | inconclusive: 292 µM [inhibitor, partial curve, poor fit]
4 | Cn1ncnc2c(=O)n(C)c(=O)nc1-2 | inconclusive: 1460 µM [inhibitor, partial curve, poor fit]
5 | O=[N+]([O-])c1ccc(N2CCCC2)c2ccncc12 | inactive
